## Library compounds against nucleic acid targets

Calls as published in the ROBIN set (doi:10.1002/anie.202211358).

Targets (5′ to 3′):
T1: TPP riboswitch RNA three-way junction, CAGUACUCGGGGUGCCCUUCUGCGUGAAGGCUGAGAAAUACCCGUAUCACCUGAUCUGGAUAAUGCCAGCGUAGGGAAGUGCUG. About 24,000 compounds screened, about 160 hits.
T2: PreQ1 riboswitch RNA pseudoknot, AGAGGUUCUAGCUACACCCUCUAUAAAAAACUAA. From B. subtilis. About 24,000 compounds screened, about 170 hits.
T3: SAM-II riboswitch RNA pseudoknot, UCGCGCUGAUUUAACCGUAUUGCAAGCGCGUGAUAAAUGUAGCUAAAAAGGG. About 21,000 compounds screened, about 200 hits.

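Compounds were printed on reactive glass slides in duplicate spots, a dye-labelled oligonucleotide was laid over them, and the fluorescence left after washing was read. For the PreQ1, TPP and SAM-II riboswitches the laboratory earlier reported (doi:10.1038/s41467-019-09493-3) 1 µM RNA, 2 h, and a rule that included a mean Z-score above 3 (spot signal-to-noise against the whole library), a score well above that on a control array, and duplicate spots agreeing (coefficient of variation under 100). The data file gives only the calls; its cut-offs may differ, and compounds hitting several targets are kept. These are primary screening calls, not affinities; a compound without a hit may have attached poorly or may still bind in solution.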
Key: hit = hit, no hit = tested without a hit.
The compounds are a random part of those screened.
A target missing from an entry has no call listed here.
A dash means that no call is listed here.

| # | Compound | T1 | T2 | T3 |
|---|---|---|---|---|
| 1 | `OCCN1CCN(c2ncnc3sc4c(c23)CCCC4)CC1` | no hit | no hit | no hit |
| 2 | `COc1ccc(-c2nc(C#N)c(NC3CCCCC3)o2)cc1` | no hit | no hit | no hit |
| 3 | `Cn1ncc2c(Nc3ccc(O)cc3)nc(Cl)nc21` | no hit | no hit | no hit |
| 4 | `C#CCn1c(CCCO)nc2ccccc21` | no hit | no hit | - |
| 5 | `Nc1nc2n(c1C(=O)c1ccc(Cl)cc1)CCCC2` | no hit | no hit | no hit |
| 6 | `Cc1cc(C)c(NC(=O)c2nccnc2CO)c(C)c1` | no hit | no hit | no hit |
| 7 | `COC(=O)c1c(N)sc(Cc2ccccc2)c1C` | no hit | no hit | no hit |
| 8 | `Nc1nonc1-c1nc2ccccc2n1Cc1ccc(Br)cc1` | no hit | no hit | - |
| 9 | `Nc1ccc(-c2nc3ccccc3n2CCCOc2ccccc2)cc1` | no hit | no hit | no hit |
| 10 | `COC(=O)CNc1c(-c2ccccc2)nc2ccccn12` | no hit | no hit | no hit |
| 11 | `Cc1cc(OCC(O)CN(C2CCCCC2)C2CCCCC2)ccc1C(C)C` (stereo not shown) | no hit | no hit | no hit |
| 12 | `CC(C)Cc1cc(C(=O)N2CCC3(CC2)c2ccccc2CC3O)on1` (stereo not shown) | no hit | no hit | no hit |
| 13 | `O=C(c1ccc(O)cc1)c1ccc(C(=O)c2ccc(O)cc2)cc1` | no hit | no hit | no hit |
| 14 | `Clc1ccc(-c2noc(CNC3CCCCC3)n2)cc1` | no hit | no hit | no hit |
| 15 | `Cc1cc(NC(=O)OC(C)C)ccc1-c1ccc(NC(=O)OC(C)C)cc1C` | no hit | no hit | no hit |
| 16 | `CCN(CC)CCCC(C)Nc1ccnc2cc(Cl)ccc12` (stereo not shown) | no hit | no hit | no hit |
| 17 | `Cc1ccc(Nc2nc(-c3cccnc3)cs2)cc1` | no hit | no hit | no hit |
| 18 | `CCCCc1ccc(-n2c(N)c(C(=O)OC)c3nc4ccccc4nc32)cc1` | no hit | no hit | no hit |
| 19 | `O=C(Cc1cccc(C(F)(F)F)c1)N1CCC2(CC1)OCCCC2O` (stereo not shown) | no hit | no hit | no hit |
| 20 | `Cc1ccc2ccc(C#N)cc2c1O` | no hit | no hit | no hit |
| 21 | `OC(CN1CCN(c2cccc(Cl)c2)CC1)c1ccc2c(c1)CCN2` (stereo not shown) | no hit | no hit | no hit |
| 22 | `CCn1cc(CN2CCC(c3nnc(CN(C)CCO)n3C)CC2)cn1` | no hit | no hit | no hit |
| 23 | `COc1ccc(C)cc1-n1cnnc1C(O)c1ccccc1` (stereo not shown) | no hit | no hit | no hit |
| 24 | `CCn1nc(CO)c2c1CCN(C(=O)c1c[nH]nc1C1CCCCC1)C2` | no hit | no hit | no hit |
| 25 | `O=C(O)c1ccc(Cl)c(NCc2ccncc2)c1` | no hit | no hit | no hit |
| 26 | `COc1c(F)cc(-c2c(C)c(-c3cnn(C)c3)nc(N)c2C#N)cc1Cl` | no hit | no hit | no hit |
| 27 | `CO[C@@]1(C)C[C@@H](O)C12CCN(C(=O)Cc1c(C)n[nH]c1C)CC2` | no hit | no hit | no hit |
| 28 | `Cc1cccc(NC(=O)c2sc3nc(C)cc(C(F)(F)F)c3c2N)n1` | no hit | no hit | no hit |
| 29 | `Cn1c(=O)c(Nc2ccccc2)c2c3c(cccc31)C(=O)c1ccccc1-2` | no hit | no hit | no hit |
| 30 | `CSc1ccccc1NC1=NS(=O)(=O)c2ccccc21` | no hit | no hit | no hit |
| 31 | `CNC(=O)[C@@H]1C[C@@H](N)CN1S(=O)(=O)c1ccc(-c2csc(C)n2)s1` | no hit | no hit | no hit |
| 32 | `CC1(C)CC(=O)C=C(NCCc2cnc[nH]2)C1` | no hit | no hit | no hit |
| 33 | `Oc1ccc(OCc2ccccc2)cc1` | no hit | no hit | no hit |
| 34 | `O=C(c1nc2ccccn2c1F)N1CCN[C@H]2CS(=O)(=O)C[C@H]21` | no hit | no hit | no hit |
| 35 | `COc1ncc(-c2cc(-c3ccc4c(c3)OCCO4)nc(N)c2C#N)cn1` | no hit | no hit | no hit |
| 36 | `NCC(=Cc1ccccc1Cl)c1nc(-c2ccccc2)cs1` | no hit | no hit | no hit |
| 37 | `Cc1nc2nc(CN)nn2c(C)c1CCC(=O)Nc1ccc(CN2CCCCC2)cc1` | no hit | hit | - |
| 38 | `COc1cccc(N(C)C(=S)Oc2ccc3c(c2)CCCC3)n1` | no hit | no hit | no hit |
| 39 | `Cc1nc2sc(C(=O)Nc3cccc(C(F)(F)F)c3)c(N)c2c(C)c1Cl` | no hit | no hit | no hit |
| 40 | `CC1(C)CC(CCN)(c2cccc(C(F)(F)F)c2)CCO1` (stereo not shown) | no hit | no hit | - |
| 41 | `O=C(CCCCCCC(=O)Nc1ccc([C@H]2O[C@@H](CSc3nc(-c4ccccc4)c(-c4ccccc4)o3)C[C@@H](c3ccc(CO)cc3)O2)cc1)NO` | no hit | no hit | no hit |
| 42 | `COCCCNc1oc(-c2ccccc2)nc1C#N` | no hit | no hit | no hit |
| 43 | `Cc1cc(Nc2cc(Cl)ccc2C)n2nc(C)nc2n1` | no hit | no hit | no hit |
| 44 | `N[C@@H]1CC[C@H](C(=O)Nc2ccccc2OCCc2ccccn2)C1` | no hit | no hit | no hit |
| 45 | `CS(=O)(=O)N(Cc1ccccc1)c1ccc(C(=O)NC2CCCCC2O)cc1` (stereo not shown) | no hit | no hit | no hit |
| 46 | `Cn1nc(C(C)(C)C)c2c1NC(=O)CC2c1cc(C#CCO)cs1` (stereo not shown) | no hit | no hit | no hit |
| 47 | `C=CCOC(=O)C1=C(C)OC(N)=C(C#N)C1c1ccc(Br)cc1` (stereo not shown) | no hit | no hit | no hit |
| 48 | `N#Cc1c(N)[n+]([O-])c2ccccc2[n+]1[O-]` | no hit | no hit | no hit |
| 49 | `OCC1(CO)COC2(CCCC2)N1` | no hit | no hit | no hit |
| 50 | `COCCN1CC(=O)C(c2nc3ccccc3[nH]2)=C1N` | no hit | no hit | - |
| 51 | `NC1(C(=O)N[C@@H](CCO)c2ccc(Cl)cc2)CCN(c2ncnc3[nH]ccc23)CC1` | no hit | no hit | no hit |
| 52 | `CCc1ccc(-c2csc(NC3OC(=O)c4ccccc43)n2)cc1` (stereo not shown) | no hit | no hit | no hit |
| 53 | `CCOc1ccc([C@@H]2C[C@H](c3c(F)cccc3Cl)n3nc(N)nc3N2)cc1` | no hit | no hit | no hit |
| 54 | `COc1ccc(C(C)Nc2nc3cc(C)ccc3cc2-c2noc(C)n2)cc1OC` (stereo not shown) | no hit | no hit | - |
| 55 | `Cc1cc(NCCCC(=O)N2CCN(c3ccccc3)CC2)n2nc(-c3cccnc3)nc2n1` | no hit | no hit | - |
| 56 | `CC1CC(C)(C)C2=NCCN21` (stereo not shown) | no hit | no hit | no hit |
| 57 | `CCCn1cnc2cc(NCc3ccc(C)cc3)ccc21` | no hit | no hit | no hit |
| 58 | `Cc1cc(C)c(C)c(Cn2c(CCNC(=O)CCC(C)O)nc3ccccc32)c1C` (stereo not shown) | no hit | hit | - |
| 59 | `O=C(c1ccc(Nc2c(-c3ccccc3)nc3cnccn23)cc1)N1CCOCC1` | no hit | no hit | - |
| 60 | `CN(CC1(CO)CCCC1)C[C@H]1CC[C@@H](N)CC1` | no hit | no hit | no hit |
| 61 | `Cc1ccc(Nc2c(S(=O)(=O)c3ccccc3)cnc3ccccc23)cc1` | no hit | no hit | - |
| 62 | `Cc1[nH]nc2c1C1(CCN(Cc3ccccc3)CC1)C(C#N)=C(N)O2` | no hit | no hit | no hit |
| 63 | `OCCNCc1ccc(OCc2cccs2)cc1` | no hit | no hit | no hit |
| 64 | `COc1c[nH]c(C(=O)N2C[C@H](C3CC3)[C@@H](N)C2)cc1=O` | no hit | no hit | no hit |
| 65 | `CCCC(=O)N1c2c(C)cccc2C(Nc2ccccc2C)CC1C` (stereo not shown) | no hit | no hit | no hit |
| 66 | `CC1(C)CC(CNCCC(c2ccc(F)cc2)c2ccco2)CCO1` (stereo not shown) | no hit | no hit | no hit |
| 67 | `CCOC(=O)c1ccc(Nc2c(-c3cc(Br)ccc3O)nc3cnccn23)cc1` | no hit | no hit | - |
| 68 | `CCOc1ccc([C@H]2C[C@@H](c3ccc(OC)cc3)Nc3nc(N)nn32)cc1` | no hit | no hit | no hit |
| 69 | `Nc1ncc(C(=O)NCc2cc3n(n2)CCCNC3)c(-c2ccccc2)n1` | no hit | no hit | no hit |
| 70 | `N#Cc1ccc(NC(=O)c2ccc(CN3CCCCC3CCO)cc2)cn1` (stereo not shown) | no hit | no hit | no hit |
| 71 | `CC(C)(C)c1nnc(N2CC[C@@H](c3ccc4ccccc4c3)[C@H](O)C2)o1` | no hit | no hit | no hit |

The first 5 entries again:

{"compound": "OCCN1CCN(c2ncnc3sc4c(c23)CCCC4)CC1", "T1": "no hit", "T2": "no hit", "T3": "no hit"}
{"compound": "COc1ccc(-c2nc(C#N)c(NC3CCCCC3)o2)cc1", "T1": "no hit", "T2": "no hit", "T3": "no hit"}
{"compound": "Cn1ncc2c(Nc3ccc(O)cc3)nc(Cl)nc21", "T1": "no hit", "T2": "no hit", "T3": "no hit"}
{"compound": "C#CCn1c(CCCO)nc2ccccc21", "T1": "no hit", "T2": "no hit"}
{"compound": "Nc1nc2n(c1C(=O)c1ccc(Cl)cc1)CCCC2", "T1": "no hit", "T2": "no hit", "T3": "no hit"}